From US7488730B2, “N-(1,2,3,4-tetrahydronaphthalen-1-yl)-4-phenyl-1-piperazinealkylamide derivatives, and therapeutic use thereof as 5-HT7 receptor ligands” (Universita Degli Studi Di Bari, priority 2005, dated 2009)
Some of these results come from one statement about several compounds together.

The chains behind the UniProt entries cited, without tags or fusion partners.
UniProt P14842, whole entry: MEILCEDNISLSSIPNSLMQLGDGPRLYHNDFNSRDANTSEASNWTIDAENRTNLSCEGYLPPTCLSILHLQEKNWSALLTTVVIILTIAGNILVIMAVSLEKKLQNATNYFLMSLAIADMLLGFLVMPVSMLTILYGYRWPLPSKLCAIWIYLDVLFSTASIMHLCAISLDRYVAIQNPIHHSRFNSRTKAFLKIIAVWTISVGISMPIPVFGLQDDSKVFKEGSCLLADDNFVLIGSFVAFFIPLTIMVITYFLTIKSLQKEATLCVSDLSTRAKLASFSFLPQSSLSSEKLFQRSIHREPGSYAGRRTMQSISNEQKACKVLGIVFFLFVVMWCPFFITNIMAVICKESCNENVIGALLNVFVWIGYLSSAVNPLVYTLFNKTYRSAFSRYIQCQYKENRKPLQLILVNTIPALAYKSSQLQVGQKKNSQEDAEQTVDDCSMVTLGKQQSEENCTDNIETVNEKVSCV

molecular target: 5-HT2A receptors (Rattus norvegicus, UniProt P14842); test: Radioligand binding assay ([3H]-ketanserin) at rat cortex membranes 5-HT2A receptors

Row | Compound | 5-HT2A receptor affinities (in words)
1 | Cc1ccccc1N1CCN(CCCCCC(=O)NC2CCCc3ccccc32)CC1 (stereo not shown) [Compound 49, 4-(2-Methylphenyl)-N-(1,2,3,4-tetrahydronaphthalen-1-yl)-1-piperazinehexanamide] | negligible
2 | N#Cc1ccc(N2CCN(CCCCCC(=O)NC3CCCc4ccccc43)CC2)cc1 (stereo not shown) [Compound 40] | negligible
3 | COc1ccc(N2CCN(CCCCCC(=O)NC3CCCc4ccccc43)CC2)cc1 (stereo not shown) [Compound 38] | negligible
4 | NC(=O)c1ccccc1N1CCN(CCCCCC(=O)NC2CCCc3ccccc32)CC1 (stereo not shown) [Compound 43] | negligible
5 | CS(=O)(=O)c1ccccc1N1CCN(CCCCCC(=O)NC2CCCc3ccccc32)CC1 (stereo not shown) [Compound 45] | negligible
6 | CC(=O)c1ccc(N2CCN(CCCCCC(=O)NC3CCCc4ccccc43)CC2)cc1 (stereo not shown) [Compound 42] | negligible
7 | CC(=O)c1ccccc1N1CCN(CCCCCC(=O)NC2CCCc3ccccc32)CC1 (stereo not shown) [Compound 34, 4-(2-Acetylphenyl)-N-(1,2,3,4-tetrahydronaphthalen-1-yl)-1-piperazinehexanamide] | negligible
